Data from the supplement of paper PMC6411743.
± gives the standard deviation of the averaged measurements. The list shows a part of the results.

Chains of the proteins cited; added tags and fusions are not shown. Lines headed by an entry give the natural chain unless they say otherwise; changes in a name come on top.
UniProt O75828: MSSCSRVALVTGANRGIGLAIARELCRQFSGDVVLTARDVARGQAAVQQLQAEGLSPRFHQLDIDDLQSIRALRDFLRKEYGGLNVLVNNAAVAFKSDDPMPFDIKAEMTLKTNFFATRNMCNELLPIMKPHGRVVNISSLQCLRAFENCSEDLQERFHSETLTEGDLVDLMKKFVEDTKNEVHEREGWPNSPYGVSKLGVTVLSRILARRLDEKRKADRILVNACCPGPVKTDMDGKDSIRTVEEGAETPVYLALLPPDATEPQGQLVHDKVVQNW
UniProt P04234, whole entry: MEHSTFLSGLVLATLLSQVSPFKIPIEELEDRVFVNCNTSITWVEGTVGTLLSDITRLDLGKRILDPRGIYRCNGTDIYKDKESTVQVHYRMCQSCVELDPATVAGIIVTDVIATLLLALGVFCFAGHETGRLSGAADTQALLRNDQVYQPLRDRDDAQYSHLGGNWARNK
UniProt O95861: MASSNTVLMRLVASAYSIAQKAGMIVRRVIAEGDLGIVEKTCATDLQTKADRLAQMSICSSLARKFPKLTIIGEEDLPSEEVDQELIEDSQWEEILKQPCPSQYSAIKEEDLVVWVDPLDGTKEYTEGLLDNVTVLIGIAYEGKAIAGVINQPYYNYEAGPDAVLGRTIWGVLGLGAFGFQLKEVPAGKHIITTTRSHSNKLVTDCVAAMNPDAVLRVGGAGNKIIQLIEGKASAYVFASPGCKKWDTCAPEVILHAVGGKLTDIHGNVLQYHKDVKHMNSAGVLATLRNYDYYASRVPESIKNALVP
UniProt O95396: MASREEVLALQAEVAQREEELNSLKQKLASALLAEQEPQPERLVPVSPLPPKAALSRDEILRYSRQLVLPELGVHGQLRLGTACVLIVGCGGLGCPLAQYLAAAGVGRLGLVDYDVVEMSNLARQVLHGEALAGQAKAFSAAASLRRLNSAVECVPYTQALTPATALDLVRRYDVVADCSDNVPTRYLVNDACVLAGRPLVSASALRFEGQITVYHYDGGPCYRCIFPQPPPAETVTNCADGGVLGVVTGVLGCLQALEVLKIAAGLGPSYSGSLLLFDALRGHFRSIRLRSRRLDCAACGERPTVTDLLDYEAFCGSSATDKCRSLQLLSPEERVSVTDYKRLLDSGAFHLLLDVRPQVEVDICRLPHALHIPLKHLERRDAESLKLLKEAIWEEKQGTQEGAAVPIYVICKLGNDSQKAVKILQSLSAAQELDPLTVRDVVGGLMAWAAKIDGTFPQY
UniProt P01137, whole entry: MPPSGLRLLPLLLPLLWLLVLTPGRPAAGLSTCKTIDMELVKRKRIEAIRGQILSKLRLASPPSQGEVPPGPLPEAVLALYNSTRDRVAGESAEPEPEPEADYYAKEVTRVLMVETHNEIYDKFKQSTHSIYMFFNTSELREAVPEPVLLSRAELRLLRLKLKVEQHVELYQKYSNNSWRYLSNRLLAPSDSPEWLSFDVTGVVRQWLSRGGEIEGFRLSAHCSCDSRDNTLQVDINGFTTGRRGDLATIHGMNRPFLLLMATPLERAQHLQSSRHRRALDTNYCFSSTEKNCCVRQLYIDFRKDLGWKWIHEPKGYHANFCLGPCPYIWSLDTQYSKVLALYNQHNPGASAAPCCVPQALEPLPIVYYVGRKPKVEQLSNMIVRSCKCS
UniProt O75940: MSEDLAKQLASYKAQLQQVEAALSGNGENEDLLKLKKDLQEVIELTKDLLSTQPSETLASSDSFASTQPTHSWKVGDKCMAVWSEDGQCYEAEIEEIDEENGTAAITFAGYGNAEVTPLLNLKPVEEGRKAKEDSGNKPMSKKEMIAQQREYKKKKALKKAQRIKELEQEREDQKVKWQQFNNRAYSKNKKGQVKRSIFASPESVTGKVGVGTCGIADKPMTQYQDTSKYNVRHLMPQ
UniProt O96019, whole entry: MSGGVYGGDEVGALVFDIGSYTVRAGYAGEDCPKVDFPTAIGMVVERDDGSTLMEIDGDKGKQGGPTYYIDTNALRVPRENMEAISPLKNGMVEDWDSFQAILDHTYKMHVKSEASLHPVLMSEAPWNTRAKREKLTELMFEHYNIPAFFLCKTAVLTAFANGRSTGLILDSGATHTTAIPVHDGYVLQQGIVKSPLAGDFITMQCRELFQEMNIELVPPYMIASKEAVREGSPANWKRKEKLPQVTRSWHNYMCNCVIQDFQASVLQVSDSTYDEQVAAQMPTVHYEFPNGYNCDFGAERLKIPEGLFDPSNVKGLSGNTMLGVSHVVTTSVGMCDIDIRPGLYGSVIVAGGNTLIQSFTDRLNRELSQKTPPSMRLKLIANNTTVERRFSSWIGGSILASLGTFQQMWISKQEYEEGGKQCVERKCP
UniProt O75400: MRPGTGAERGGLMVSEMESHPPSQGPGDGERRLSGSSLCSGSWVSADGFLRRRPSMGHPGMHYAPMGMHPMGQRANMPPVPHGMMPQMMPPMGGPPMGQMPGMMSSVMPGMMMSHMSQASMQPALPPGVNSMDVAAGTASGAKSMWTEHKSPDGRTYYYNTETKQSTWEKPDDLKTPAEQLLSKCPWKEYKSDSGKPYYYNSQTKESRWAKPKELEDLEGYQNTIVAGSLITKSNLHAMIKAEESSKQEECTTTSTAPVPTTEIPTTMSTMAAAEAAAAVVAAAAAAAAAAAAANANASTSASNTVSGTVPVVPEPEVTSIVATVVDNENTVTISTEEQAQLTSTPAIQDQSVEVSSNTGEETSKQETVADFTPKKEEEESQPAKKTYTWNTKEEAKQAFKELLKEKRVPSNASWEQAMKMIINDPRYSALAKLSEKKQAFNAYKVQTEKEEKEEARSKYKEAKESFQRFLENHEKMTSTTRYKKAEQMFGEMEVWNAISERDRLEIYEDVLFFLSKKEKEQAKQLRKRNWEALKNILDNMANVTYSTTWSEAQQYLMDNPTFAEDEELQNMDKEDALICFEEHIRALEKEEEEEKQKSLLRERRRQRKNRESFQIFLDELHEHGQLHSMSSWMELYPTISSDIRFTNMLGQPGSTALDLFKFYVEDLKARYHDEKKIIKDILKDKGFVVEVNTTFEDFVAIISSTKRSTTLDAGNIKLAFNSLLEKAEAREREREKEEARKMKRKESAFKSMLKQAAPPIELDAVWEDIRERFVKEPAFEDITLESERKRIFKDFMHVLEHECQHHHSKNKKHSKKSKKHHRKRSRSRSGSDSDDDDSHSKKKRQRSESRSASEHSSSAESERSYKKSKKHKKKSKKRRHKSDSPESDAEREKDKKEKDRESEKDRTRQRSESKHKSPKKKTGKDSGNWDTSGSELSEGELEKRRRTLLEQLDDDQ
UniProt O95816: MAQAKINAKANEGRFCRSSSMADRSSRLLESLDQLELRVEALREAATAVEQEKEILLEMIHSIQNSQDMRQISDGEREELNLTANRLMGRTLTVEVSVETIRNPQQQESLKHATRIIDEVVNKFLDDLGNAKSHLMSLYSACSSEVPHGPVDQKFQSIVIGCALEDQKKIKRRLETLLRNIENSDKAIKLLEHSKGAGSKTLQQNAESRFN
UniProt O75884: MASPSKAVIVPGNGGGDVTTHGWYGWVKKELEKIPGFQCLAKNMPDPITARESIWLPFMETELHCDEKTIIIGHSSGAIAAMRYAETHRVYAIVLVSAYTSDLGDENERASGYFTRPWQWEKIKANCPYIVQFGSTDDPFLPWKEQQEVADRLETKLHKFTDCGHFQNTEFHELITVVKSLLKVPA
UniProt O95825: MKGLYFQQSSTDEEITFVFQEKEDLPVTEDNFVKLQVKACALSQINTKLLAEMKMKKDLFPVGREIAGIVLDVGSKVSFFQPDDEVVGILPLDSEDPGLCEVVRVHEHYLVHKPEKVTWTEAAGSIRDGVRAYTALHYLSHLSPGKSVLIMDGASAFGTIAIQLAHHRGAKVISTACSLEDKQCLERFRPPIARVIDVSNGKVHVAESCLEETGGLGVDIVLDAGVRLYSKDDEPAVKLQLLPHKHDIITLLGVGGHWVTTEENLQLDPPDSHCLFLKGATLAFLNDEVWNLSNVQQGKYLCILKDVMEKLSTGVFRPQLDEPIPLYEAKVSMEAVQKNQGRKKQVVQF
UniProt P00167, whole entry: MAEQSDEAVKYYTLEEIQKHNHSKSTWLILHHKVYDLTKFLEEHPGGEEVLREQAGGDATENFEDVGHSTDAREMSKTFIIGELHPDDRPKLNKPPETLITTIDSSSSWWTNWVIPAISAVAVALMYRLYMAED
UniProt O94776: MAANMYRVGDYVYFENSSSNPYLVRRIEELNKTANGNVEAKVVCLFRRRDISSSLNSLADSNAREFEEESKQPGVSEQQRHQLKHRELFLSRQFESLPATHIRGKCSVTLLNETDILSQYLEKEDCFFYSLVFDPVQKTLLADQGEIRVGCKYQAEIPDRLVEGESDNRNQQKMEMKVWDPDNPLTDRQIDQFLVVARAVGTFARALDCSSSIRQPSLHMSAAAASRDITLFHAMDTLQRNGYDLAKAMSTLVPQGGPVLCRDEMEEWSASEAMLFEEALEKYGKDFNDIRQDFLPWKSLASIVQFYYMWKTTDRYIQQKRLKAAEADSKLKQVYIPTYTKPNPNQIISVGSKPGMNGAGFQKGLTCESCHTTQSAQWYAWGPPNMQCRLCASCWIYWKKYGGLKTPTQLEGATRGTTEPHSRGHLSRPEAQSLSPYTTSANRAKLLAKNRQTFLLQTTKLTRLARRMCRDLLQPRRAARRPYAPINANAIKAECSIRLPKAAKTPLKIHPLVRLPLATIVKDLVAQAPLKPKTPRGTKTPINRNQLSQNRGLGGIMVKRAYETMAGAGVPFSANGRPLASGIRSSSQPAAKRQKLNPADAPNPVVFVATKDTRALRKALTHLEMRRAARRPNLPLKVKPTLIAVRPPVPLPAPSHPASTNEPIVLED
UniProt O75976: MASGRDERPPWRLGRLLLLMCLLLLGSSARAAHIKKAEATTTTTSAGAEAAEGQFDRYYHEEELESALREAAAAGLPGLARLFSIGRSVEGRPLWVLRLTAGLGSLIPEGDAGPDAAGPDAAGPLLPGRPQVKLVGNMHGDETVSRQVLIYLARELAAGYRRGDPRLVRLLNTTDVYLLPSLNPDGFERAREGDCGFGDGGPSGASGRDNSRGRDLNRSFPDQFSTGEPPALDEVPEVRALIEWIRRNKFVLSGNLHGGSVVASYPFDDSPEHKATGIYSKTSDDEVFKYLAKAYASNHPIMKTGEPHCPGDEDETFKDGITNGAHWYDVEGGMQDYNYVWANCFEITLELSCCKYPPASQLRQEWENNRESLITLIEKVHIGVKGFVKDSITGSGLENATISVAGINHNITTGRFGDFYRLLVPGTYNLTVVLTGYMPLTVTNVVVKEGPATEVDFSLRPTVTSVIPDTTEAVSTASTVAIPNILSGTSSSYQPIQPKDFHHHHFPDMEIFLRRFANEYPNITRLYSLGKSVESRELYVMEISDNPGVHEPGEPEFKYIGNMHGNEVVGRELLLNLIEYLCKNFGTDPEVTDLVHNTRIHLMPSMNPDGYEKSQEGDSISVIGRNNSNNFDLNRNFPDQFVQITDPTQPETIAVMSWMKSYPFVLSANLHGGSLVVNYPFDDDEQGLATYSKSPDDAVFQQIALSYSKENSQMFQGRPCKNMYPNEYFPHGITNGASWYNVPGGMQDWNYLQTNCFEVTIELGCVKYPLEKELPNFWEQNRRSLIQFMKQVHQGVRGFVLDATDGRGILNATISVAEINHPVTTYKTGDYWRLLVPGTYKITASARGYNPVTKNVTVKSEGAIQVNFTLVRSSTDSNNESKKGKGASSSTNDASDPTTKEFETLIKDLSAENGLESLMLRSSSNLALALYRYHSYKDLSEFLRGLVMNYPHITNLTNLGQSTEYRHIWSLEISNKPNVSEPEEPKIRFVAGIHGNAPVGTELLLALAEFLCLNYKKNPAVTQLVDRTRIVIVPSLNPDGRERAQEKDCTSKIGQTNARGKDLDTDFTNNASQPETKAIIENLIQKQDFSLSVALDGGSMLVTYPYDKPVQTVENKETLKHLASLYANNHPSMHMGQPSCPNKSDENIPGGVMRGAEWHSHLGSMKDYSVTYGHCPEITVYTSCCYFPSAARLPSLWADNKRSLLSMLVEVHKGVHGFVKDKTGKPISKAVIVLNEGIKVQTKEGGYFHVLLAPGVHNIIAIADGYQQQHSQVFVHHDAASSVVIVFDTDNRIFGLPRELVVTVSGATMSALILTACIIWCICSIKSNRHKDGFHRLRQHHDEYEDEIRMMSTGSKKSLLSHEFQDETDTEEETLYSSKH

Compound: Nc1nc2c(ncn2[C@@H]2O[C@H](COP(=O)(O)OP(=O)(O)OP(=O)(O)O)[C@@H](O)[C@H]2O)c(=O)[nH]1 [guanosine triphosphate]
Test: NP40-soluble protein abundance relative to vehicle (solubility fold change) (ratio); higher = more soluble protein in presence of GTP
How it was run: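 Each value is a fold change relative to the detergent-processed vehicle, calculated per replicate from vsn-normalised intensities. Jurkat crude lysate received eight concentrations (0.1 to 10 mM) for 10 min at room temperature and 3 min at 37 °C, then was solubilised in 0.8% NP40 with benzonase (60 min, 4 °C). The ultracentrifuged supernatant was TMT-labelled and run by LC-MS/MS in three independent experiments.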

Row | Target | NP40-soluble protein abundance (concentration: 0.1mM) | NP40-soluble protein abundance (concentration: 0.5mM) | NP40-soluble protein abundance (concentration: 1mM) | NP40-soluble protein abundance (concentration: 2mM) | NP40-soluble protein abundance (concentration: 4mM) | NP40-soluble protein abundance (concentration: 6mM) | NP40-soluble protein abundance (concentration: 8mM) | NP40-soluble protein abundance (concentration: 10mM)
1 | SLC25A12 (UniProt O75746) | 1.07 ± 0.011 | 1.04 ± 0.016 | 1.03 ± 0.058 | 1.03 ± 0.075 | 1.07 ± 0.076 | 1.04 ± 0.1 | 1.03 ± 0.063 | 1.01 ± 0.029
2 | CBR3 (UniProt O75828) | 1.15 ± 0.032 | 1.21 ± 0.11 | 1.11 ± 0.029 | 1.06 ± 0.082 | 1.04 ± 0.082 | 0.936 ± 0.091 | 1.08 ± 0.22 | 1.09 ± 0.11
3 | VAPB (UniProt O95292) | 0.935 ± 0.067 | 0.926 ± 0.093 | 0.944 ± 0.088 | 0.918 ± 0.11 | 0.924 ± 0.082 | 0.913 ± 0.098 | 0.944 ± 0.086 | 0.949 ± 0.1
4 | RSL1D1 (UniProt O76021) | 1.02 ± 0.063 | 1.06 ± 0.036 | 1.15 ± 0.06 | 1.2 ± 0.04 | 1.26 ± 0.056 | 1.3 ± 0.034 | 1.28 ± 0.064 | 1.49 ± 0.14
5 | UniProt P04234 | 0.872 ± 0.068 | 0.829 ± 0.043 | 0.88 ± 0.055 | 0.892 ± 0.048 | 0.88 ± 0.057 | 0.872 ± 0.041 | 0.802 ± 0.096 | 0.877 ± 0.037
6 | UniProt O95861 and related entries | 0.944 ± 0.02 | 0.9416 ± 0.0021 | 0.875 ± 0.024 | 0.862 ± 0.035 | 0.839 ± 0.043 | 0.843 ± 0.05 | 0.812 ± 0.067 | 0.816 ± 0.07
7 | MOCS3 (UniProt O95396) | 1.05 ± 0.069 | 1.05 ± 0.1 | 1.07 ± 0.094 | 1.07 ± 0.085 | 1.11 ± 0.11 | 1.02 ± 0.074 | 1.03 ± 0.062 | 1.03 ± 0.089
8 | ZBTB7A (UniProt O95365) | 0.979 ± 0.065 | 0.999 ± 0.089 | 1.08 ± 0.14 | 1.08 ± 0.1 | 1.06 ± 0.098 | 1.14 ± 0.091 | 1.08 ± 0.1 | 1.21 ± 0.22
9 | UniProt O95563 and related entries | 1.07 ± 0.017 | 1.1 ± 0.065 | 0.973 ± 0.03 | 0.922 ± 0.032 | 0.946 ± 0.053 | 0.902 ± 0.022 | 0.91 ± 0.16 | 0.837 ± 0.12
10 | TGFB1 (UniProt P01137) | 0.926 ± 0.072 | 1.02 ± 0.11 | 0.908 ± 0.091 | 0.961 ± 0.092 | 0.987 ± 0.055 | 0.958 ± 0.088 | 0.896 ± 0.11 | 0.968 ± 0.14
11 | SMNDC1 (UniProt O75940) | 0.935 ± 0.11 | 0.985 ± 0.13 | 1 ± 0.14 | 1.02 ± 0.15 | 1.05 ± 0.16 | 1.1 ± 0.15 | 1.16 ± 0.16 | 1.17 ± 0.16
12 | UniProt O96019 and related entries | 1.02 ± 0.033 | 1.05 ± 0.036 | 1.05 ± 0.049 | 1.09 ± 0.085 | 1.09 ± 0.09 | 1.11 ± 0.11 | 1.1 ± 0.071 | 1.06 ± 0.079
13 | GLUD1 (UniProt P00367) | 1.01 ± 0.049 | 1.02 ± 0.047 | 0.98 ± 0.062 | 0.974 ± 0.051 | 0.96 ± 0.074 | 0.984 ± 0.065 | 0.968 ± 0.072 | 0.926 ± 0.032
14 | UniProt O95793 and related entries | 0.997 ± 0.045 | 1.02 ± 0.044 | 1.1 ± 0.079 | 1.18 ± 0.076 | 1.33 ± 0.11 | 1.42 ± 0.13 | 1.54 ± 0.2 | 1.82 ± 0.31
15 | UniProt O75400 and related entries | 1.02 ± 0.05 | 1.11 ± 0.036 | 1.23 ± 0.083 | 1.25 ± 0.076 | 1.37 ± 0.21 | 1.52 ± 0.24 | 1.81 ± 0.37 | 1.89 ± 0.41
16 | POLR1A (UniProt O95602) | 1.17 ± 0.12 | 1.2 ± 0.13 | 1.15 ± 0.12 | 1.28 ± 0.19 | 1.29 ± 0.15 | 1.27 ± 0.17 | 1.29 ± 0.14 | 1.26 ± 0.15
17 | DHFR (UniProt P00374) | 0.991 ± 0.071 | 1.01 ± 0.069 | 0.977 ± 0.07 | 0.929 ± 0.055 | 0.943 ± 0.093 | 0.929 ± 0.045 | 0.928 ± 0.079 | 0.909 ± 0.056
18 | BAG2 (UniProt O95816) | 0.99 ± 0.12 | 0.965 ± 0.086 | 1.1 ± 0.19 | 1.11 ± 0.14 | 1.16 ± 0.23 | 1.09 ± 0.17 | 1.03 ± 0.18 | 1.07 ± 0.26
19 | UniProt O95782 and related entries | 1.03 ± 0.024 | 1.03 ± 0.032 | 0.979 ± 0.049 | 1.02 ± 0.077 | 1.04 ± 0.065 | 1.02 ± 0.092 | 0.972 ± 0.029 | 1 ± 0.013
20 | RBBP9 (UniProt O75884) | 1.02 ± 0.072 | 0.941 ± 0.061 | 0.951 ± 0.054 | 0.89 ± 0.083 | 0.855 ± 0.068 | 0.872 ± 0.12 | 0.87 ± 0.05 | 0.84 ± 0.13
21 | CRYZL1 (UniProt O95825) | 1.04 ± 0.042 | 1.02 ± 0.061 | 0.986 ± 0.039 | 0.964 ± 0.038 | 0.964 ± 0.038 | 0.971 ± 0.032 | 0.972 ± 0.046 | 0.925 ± 0.037
22 | VPS26A (UniProt O75436) | 1.12 ± 0.089 | 1.05 ± 0.048 | 0.948 ± 0.027 | 0.951 ± 0.088 | 0.948 ± 0.072 | 0.924 ± 0.034 | 0.864 ± 0.048 | 0.863 ± 0.097
23 | UniProt O94762 and related entries | 1.08 ± 0.059 | 1.09 ± 0.043 | 1.1 ± 0.093 | 1.14 ± 0.11 | 1.14 ± 0.12 | 1.26 ± 0.15 | 1.2 ± 0.13 | 1.2 ± 0.06
24 | UniProt O75592 and related entries | 1.09 ± 0.0058 | 1.19 ± 0.16 | 1.24 ± 0.062 | 1.24 ± 0.16 | 1.47 ± 0.52 | 1.17 ± 0.38 | 1.35 ± 0.45 | 1.34 ± 0.38
25 | UniProt P00167 and related entries | 0.89 ± 0.016 | 0.898 ± 0.04 | 0.892 ± 0.042 | 0.867 ± 0.071 | 0.837 ± 0.065 | 0.865 ± 0.076 | 0.821 ± 0.077 | 0.849 ± 0.076
26 | MTA2 (UniProt O94776) | 1.04 ± 0.028 | 1.1 ± 0.059 | 1.08 ± 0.074 | 1.11 ± 0.07 | 1.1 ± 0.09 | 1.13 ± 0.11 | 1.14 ± 0.12 | 1.1 ± 0.092
27 | CPD (UniProt O75976) | 0.939 ± 0.052 | 0.937 ± 0.075 | 0.945 ± 0.079 | 0.952 ± 0.082 | 0.917 ± 0.061 | 0.933 ± 0.074 | 0.939 ± 0.034 | 0.956 ± 0.057
28 | ZBED1 (UniProt O96006) | 1.02 ± 0.047 | 1.03 ± 0.015 | 1.01 ± 0.04 | 0.966 ± 0.057 | 0.962 ± 0.043 | 0.915 ± 0.052 | 0.929 ± 0.077 | 0.901 ± 0.055

Numbers 12–13 from above:
Row | Target | NP40-soluble protein abundance (concentration: 0.1mM) | NP40-soluble protein abundance (concentration: 0.5mM) | NP40-soluble protein abundance (concentration: 1mM) | NP40-soluble protein abundance (concentration: 2mM) | NP40-soluble protein abundance (concentration: 4mM) | NP40-soluble protein abundance (concentration: 6mM) | NP40-soluble protein abundance (concentration: 8mM) | NP40-soluble protein abundance (concentration: 10mM)
12 | UniProt O96019 and related entries | 1.02 ± 0.033 | 1.05 ± 0.036 | 1.05 ± 0.049 | 1.09 ± 0.085 | 1.09 ± 0.09 | 1.11 ± 0.11 | 1.1 ± 0.071 | 1.06 ± 0.079
13 | GLUD1 (UniProt P00367) | 1.01 ± 0.049 | 1.02 ± 0.047 | 0.98 ± 0.062 | 0.974 ± 0.051 | 0.96 ± 0.074 | 0.984 ± 0.065 | 0.968 ± 0.072 | 0.926 ± 0.032
